# Test results reported in article PMC7819943, “Rice protein-binding microarrays: a tool to detect cis-acting elements near promoter regions in rice”.
# Chains of the proteins cited; added tags and fusions are not shown.
# UniProt Q0JBA9, entry or part of it: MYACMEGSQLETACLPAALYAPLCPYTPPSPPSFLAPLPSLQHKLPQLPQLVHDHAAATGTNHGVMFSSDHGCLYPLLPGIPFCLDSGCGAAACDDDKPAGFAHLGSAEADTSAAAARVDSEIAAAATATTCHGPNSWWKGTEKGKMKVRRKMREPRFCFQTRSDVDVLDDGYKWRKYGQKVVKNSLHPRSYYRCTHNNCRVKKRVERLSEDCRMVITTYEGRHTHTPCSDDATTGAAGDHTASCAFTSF
# This is one part of the list.
# Target: OsWRKY34 (Oryza sativa, UniProt Q0JBA9 1-250)
# Experiment: protein-binding microarray (RPBM); PBS, 2% BSA, 51.3 ng/ul salmon testes DNA, 50 uM zinc acetate, 200 nM TF, 25 C, 1 h; high values mean tight binding
# Details: protein: recombinant; tags: N-terminal polyhistidine and DsRed monomer fusion (pET32a); label: CyDye5-dUTP incorporated in the synthesized complementary strand; 3' TTTTT single-stranded linker to array surface; dsDNA, one strand shown
# Summary of the method: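 In PBS with 2% BSA, salmon testes DNA and 50 µM zinc acetate, 200 nM protein was incubated on a custom Agilent array at 25 °C for 1 h and then washed off. The array had been made double-stranded by primer extension with Cy5-dUTP and blocked with 2% BSA. The proteins were transcription factors fused N-terminally to polyhistidine and DsRed, expressed in E. coli BL21-CodonPlus and purified on Ni–NTA. The binding signal is per-feature fluorescence intensity (arbitrary units) from an Axon 4000B scanner.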
row,Sequence,binding signal
1,GGAGGGTTAGATCACCAGGGGCGGGTTGATGCAAAAAATTCGGAGTCACCTAGTGCAG,17000 fluorescence intensity (a.u.)
2,CCTGCCGCTGGCGGTCTGGCGCTGGGGAGGGGATGGATGCCGGAGTCACCTAGTGCAG,8040 fluorescence intensity (a.u.)
3,CAGAGGAATAGTGCATCTCTCTCTGGTGTTTTTTTGTTTTCGGAGTCACCTAGTGCAG,10600 fluorescence intensity (a.u.)
4,AATTTGATTTCCTCTTCTTTTGTTGCTTAATTTCAGTCTCCGGAGTCACCTAGTGCAG,8340 fluorescence intensity (a.u.)
5,TAATTGCTTGTTACTGGCAGTCGGTCCTCGATTATTTAACCGGAGTCACCTAGTGCAG,8930 fluorescence intensity (a.u.)
6,GCTCTCGCTCGCTCGCTCTCTCGCTCGCTGCTCCCAAATGCGGAGTCACCTAGTGCAG,10100 fluorescence intensity (a.u.)
7,CAATTTGATCCCTTCCATGCCCCTACCGTTACATTTTTCCCGGAGTCACCTAGTGCAG,8520 fluorescence intensity (a.u.)
8,GTGCTTGTGTAAATTGGTACTTCATCATTACTATATATTTCGGAGTCACCTAGTGCAG,9110 fluorescence intensity (a.u.)
9,CTCCACTCCATCTCCATGACTCCATCGGTCCATGGACTGGCGGAGTCACCTAGTGCAG,8410 fluorescence intensity (a.u.)
10,GCACCCCACTTATTGCTCTCTCTCCTCTTCTTTTTCTTCCCGGAGTCACCTAGTGCAG,10900 fluorescence intensity (a.u.)
11,GTTATTTATGCTTCTCAGTTACCTAAACCAATATAATTTCCGGAGTCACCTAGTGCAG,8480 fluorescence intensity (a.u.)
12,GCTTGCGCGCGTCCTTCCAGTCGCACCAACTGGTTCCAATCGGAGTCACCTAGTGCAG,9890 fluorescence intensity (a.u.)
13,CACACTATCACCGCGACACCAGCTTTCTCCTCCGCAGGCACGGAGTCACCTAGTGCAG,8900 fluorescence intensity (a.u.)
14,CACATTTCTCCTGCACGACTGCCTGGCCCATGCCCTCTCTCGGAGTCACCTAGTGCAG,8820 fluorescence intensity (a.u.)
15,AAATATTCTCCGCTGTTTCTTCCGTGAACTTCGTCCATGCCGGAGTCACCTAGTGCAG,8380 fluorescence intensity (a.u.)
16,GCCTTTTGACCAACCCATTCGTCCGGCACCCGTCCCGGCCCGGAGTCACCTAGTGCAG,8510 fluorescence intensity (a.u.)
17,CATCTCATCTGCGCTGTTCTTGTTGCTGTTGCTGTTCAATCGGAGTCACCTAGTGCAG,15000 fluorescence intensity (a.u.)
18,CCTCAATACCATTGACAGCACACCGCTCTCTAGACCCTACCGGAGTCACCTAGTGCAG,9070 fluorescence intensity (a.u.)
19,GGTGGGCGGGCGGGAAATATCCGCCCCGTTTTCACCCTAGCGGAGTCACCTAGTGCAG,8020 fluorescence intensity (a.u.)
20,GTCCATGCCACACACGTCGCGTCCCATGTCGTCATGCCTCCGGAGTCACCTAGTGCAG,9710 fluorescence intensity (a.u.)
21,TAGTCTTCTGTCATCGTCGACCGTCAAGTGTGTCTCTCGCCGGAGTCACCTAGTGCAG,15700 fluorescence intensity (a.u.)

row,Sequence,binding signal
1,ACCACCACCGGCCGGTCTCCTTTCTGCTTGCCTCGCTCTCCGGAGTCACCTAGTGCAG,11100 fluorescence intensity (a.u.)
2,TATATCTCGTGGTTTGTGGGTTCTTTTCACTTGTTCAGTGCGGAGTCACCTAGTGCAG,14000 fluorescence intensity (a.u.)
3,GTAAAACTGAATAAGTGGGTGGGTATCTGTCGCTTTGCTTCGGAGTCACCTAGTGCAG,9200 fluorescence intensity (a.u.)
4,ACTCATGTTTGTTATAACTCACAACCATTTTTAGTTTTCCCGGAGTCACCTAGTGCAG,9560 fluorescence intensity (a.u.)
5,GAATTATTAGGGAGAAAGGAGTTGCAGGGTGGGGATTGTTCGGAGTCACCTAGTGCAG,8330 fluorescence intensity (a.u.)
6,TTGGTTTATTAGGTTTTGTTTCTCGTTCTCATCACTAAGACGGAGTCACCTAGTGCAG,10700 fluorescence intensity (a.u.)
7,TCGATTACGATCTCGTCAGTACCATATATTTCGACTACTCCGGAGTCACCTAGTGCAG,10100 fluorescence intensity (a.u.)
8,CATGGTGCCCTTGATTCATCGATCGTCACAGCCAAGGTGACGGAGTCACCTAGTGCAG,8780 fluorescence intensity (a.u.)
9,CTTCCACCTGTCTGCTATTTGTTGGTGAGAATTTTAAAAACGGAGTCACCTAGTGCAG,8710 fluorescence intensity (a.u.)
10,GCTTGCTCGCGCTCCACTGCTCGGCCCGCCGCCGCGCTCGCGGAGTCACCTAGTGCAG,8780 fluorescence intensity (a.u.)
11,CTCGTCTCTTCGTTCGTTCCTAGGTCCAAGTACCACCTCACGGAGTCACCTAGTGCAG,10300 fluorescence intensity (a.u.)
12,GGTATGTCTGAATTTTTCGCATCATCTACAGTGCCTAAACCGGAGTCACCTAGTGCAG,9340 fluorescence intensity (a.u.)
13,ATGGTTTACATTTTCAGCTTTTGCCTGTTGGCCGGTATACCGGAGTCACCTAGTGCAG,8880 fluorescence intensity (a.u.)
14,AGCTATCCATCCACTCCTTCCCCATACCACAACCGATTCACGGAGTCACCTAGTGCAG,9680 fluorescence intensity (a.u.)
15,GTTGAGTTGTGTGTGAGGCGTTATAATATGTGGGACCGGGCGGAGTCACCTAGTGCAG,8210 fluorescence intensity (a.u.)
16,CGCTTCACTTCCCCACTAGCCACAAGGCCCACAACCCAACCGGAGTCACCTAGTGCAG,10000 fluorescence intensity (a.u.)
17,TCTCTCTCTCTCTCTCTCTCGCTCTGACACACTTGACACTCGGAGTCACCTAGTGCAG,9320 fluorescence intensity (a.u.)
18,ACTCCCTCCGTTTCAAAATGTTTGACACCGTTGACTTTTTCGGAGTCACCTAGTGCAG,18500 fluorescence intensity (a.u.)
19,GCAACGCTCCATTTCAAAGAAAATCATTCAGTATTTGCCTCGGAGTCACCTAGTGCAG,8170 fluorescence intensity (a.u.)
20,TTTATTGGACTATGGATGGGATACTAACATTTCTTTTCTTCGGAGTCACCTAGTGCAG,8900 fluorescence intensity (a.u.)
21,GTGATGTTTTGTGAATGGGGATGATTTGTTGTTGAGTTCGCGGAGTCACCTAGTGCAG,9900 fluorescence intensity (a.u.)

# A section of the results above, for reference:
row,Sequence,binding signal
1,ACCACCACCGGCCGGTCTCCTTTCTGCTTGCCTCGCTCTCCGGAGTCACCTAGTGCAG,11100 fluorescence intensity (a.u.)
2,TATATCTCGTGGTTTGTGGGTTCTTTTCACTTGTTCAGTGCGGAGTCACCTAGTGCAG,14000 fluorescence intensity (a.u.)
3,GTAAAACTGAATAAGTGGGTGGGTATCTGTCGCTTTGCTTCGGAGTCACCTAGTGCAG,9200 fluorescence intensity (a.u.)
4,ACTCATGTTTGTTATAACTCACAACCATTTTTAGTTTTCCCGGAGTCACCTAGTGCAG,9560 fluorescence intensity (a.u.)
5,GAATTATTAGGGAGAAAGGAGTTGCAGGGTGGGGATTGTTCGGAGTCACCTAGTGCAG,8330 fluorescence intensity (a.u.)
6,TTGGTTTATTAGGTTTTGTTTCTCGTTCTCATCACTAAGACGGAGTCACCTAGTGCAG,10700 fluorescence intensity (a.u.)
7,TCGATTACGATCTCGTCAGTACCATATATTTCGACTACTCCGGAGTCACCTAGTGCAG,10100 fluorescence intensity (a.u.)
8,CATGGTGCCCTTGATTCATCGATCGTCACAGCCAAGGTGACGGAGTCACCTAGTGCAG,8780 fluorescence intensity (a.u.)
9,CTTCCACCTGTCTGCTATTTGTTGGTGAGAATTTTAAAAACGGAGTCACCTAGTGCAG,8710 fluorescence intensity (a.u.)
10,GCTTGCTCGCGCTCCACTGCTCGGCCCGCCGCCGCGCTCGCGGAGTCACCTAGTGCAG,8780 fluorescence intensity (a.u.)
11,CTCGTCTCTTCGTTCGTTCCTAGGTCCAAGTACCACCTCACGGAGTCACCTAGTGCAG,10300 fluorescence intensity (a.u.)

# Next part:

row,Sequence,binding signal
1,ATTGTGTATGCCATTTTATTCATATATGATTTCCGTGTTGCGGAGTCACCTAGTGCAG,8150 fluorescence intensity (a.u.)
2,GATTCATCGATCTTTTACGAGTACTATTTTTGTGATTATTCGGAGTCACCTAGTGCAG,11300 fluorescence intensity (a.u.)
3,TCGTTTCGTTTCGTTTTGGGAATTGCGAGGCACCTCTCTTCGGAGTCACCTAGTGCAG,8670 fluorescence intensity (a.u.)
4,GCGATCACGCTCGGCAACCACCTGCGCAACTTCACCACCCCGGAGTCACCTAGTGCAG,8050 fluorescence intensity (a.u.)
5,CACCTCGCCCGGCCCAACCCCAGCTAATCGCGATCAAACGCGGAGTCACCTAGTGCAG,8790 fluorescence intensity (a.u.)
6,GATCCCACGGCATTTAGGCCCTGTTTGTTCACACCAAACTCGGAGTCACCTAGTGCAG,8590 fluorescence intensity (a.u.)
7,CGTATTGAAAAAAACGGATCTACCGTTGACTTTGGACAAACGGAGTCACCTAGTGCAG,11000 fluorescence intensity (a.u.)
8,CTGATGATCTATGGCATCGACGGGGCCCACTTTTCTCGAACGGAGTCACCTAGTGCAG,8700 fluorescence intensity (a.u.)
9,ATGTTGTTTGCTTGTATGTTTGGTCGTTTTCCATCCTTTGCGGAGTCACCTAGTGCAG,9130 fluorescence intensity (a.u.)
10,GCCGCTATCGACCATGGTCAGCCCTTAACCTAGCTTGTATCGGAGTCACCTAGTGCAG,9290 fluorescence intensity (a.u.)
11,TCGTCCTTGTAAGTACTCTAGTTGTTCTCCCTTTTTTTTTCGGAGTCACCTAGTGCAG,10800 fluorescence intensity (a.u.)
12,GCGGGGAGGGGCGGCGCCGACGCCTCATCGACTAGTTCACCGGAGTCACCTAGTGCAG,8720 fluorescence intensity (a.u.)
13,GCATTTTCTCCTTCGTTTACTCGATCTGCTTCCTTCGACACGGAGTCACCTAGTGCAG,12300 fluorescence intensity (a.u.)
14,ATTTTTGATGCTTGCTCGTTTTTTTCCTGCACTCATAACACGGAGTCACCTAGTGCAG,11000 fluorescence intensity (a.u.)
15,GCCTCTGTGGCGGGCGGTGCTTTTGTTTATTTGTTCACATCGGAGTCACCTAGTGCAG,9540 fluorescence intensity (a.u.)
16,ATTCAGTTGGTTTGGGGATTTAGATGTGGGCTCCTTCTTTCGGAGTCACCTAGTGCAG,13200 fluorescence intensity (a.u.)
17,ACGTCCATGATGTACTCCACGCGCCGCTCTTTCTCCGTCACGGAGTCACCTAGTGCAG,8170 fluorescence intensity (a.u.)
18,CTGTAGTGTTGCTTGGTTTCTCTTTTTTGCCTCTTCACGGCGGAGTCACCTAGTGCAG,13200 fluorescence intensity (a.u.)
19,CATGTATTCTTTTCCAGGCCCATTAGTCTATTGCGTGTGTCGGAGTCACCTAGTGCAG,9450 fluorescence intensity (a.u.)
20,TAAAACTTGAGAAATGTAGCTGTCCATCTTTTGTTCGAATCGGAGTCACCTAGTGCAG,8370 fluorescence intensity (a.u.)
21,TTTTTCAACCTTAGTTTTATTTTCCTCGTGATTTCAAAATCGGAGTCACCTAGTGCAG,9550 fluorescence intensity (a.u.)

row,Sequence,binding signal
1,GGCCCATCTGACCAAGCCCAGCTCGCGTCGTCGTGTTGATCGGAGTCACCTAGTGCAG,8930 fluorescence intensity (a.u.)
2,GCCACTTGTAGTATGATGTGTTTGTTTCCTACCATAACTACGGAGTCACCTAGTGCAG,8120 fluorescence intensity (a.u.)
3,GCTTGAGCATCTCTGTTGATCCATGATATACTCTTAATTTCGGAGTCACCTAGTGCAG,8130 fluorescence intensity (a.u.)
4,CCCCACCCTGTACTCTCTCCGTACATTACCGTCCCTTCCCCGGAGTCACCTAGTGCAG,8380 fluorescence intensity (a.u.)
5,TATATATTCTGGTTTATTTTATGTACTAGTCATTGTTACTCGGAGTCACCTAGTGCAG,8360 fluorescence intensity (a.u.)
6,TTTGACCTTGTTATGCCTTACTTGTTTGATTTGACCCTATCGGAGTCACCTAGTGCAG,10300 fluorescence intensity (a.u.)
7,CCATTCATTCGTTCGTTCACCTTGACTGACCACTGCAACTCGGAGTCACCTAGTGCAG,11500 fluorescence intensity (a.u.)
8,GGTGCCCCTTTGTCCAGCTAGCGATACCTCTCCTGCATACCGGAGTCACCTAGTGCAG,9920 fluorescence intensity (a.u.)
9,CTCCTCGCCTCTCTCGAACGCCGATTTCCCCTTCTCTCTCCGGAGTCACCTAGTGCAG,8710 fluorescence intensity (a.u.)
10,TCTGCCAAGGTTGTTGTTTGTTCCTACAGTTGAGAGTTGACGGAGTCACCTAGTGCAG,10000 fluorescence intensity (a.u.)
11,ATTCATATGTTTTTCCTTTATTTTGCAATCATCTGTTTTACGGAGTCACCTAGTGCAG,13300 fluorescence intensity (a.u.)
12,AGTCACCAGTATTTGTATTTCTTTTTGCCGATTTTTGGCCCGGAGTCACCTAGTGCAG,11800 fluorescence intensity (a.u.)
13,CACTTGGGCAAGAGATCCTCCTTCTTCTTCTTGTTATTGCCGGAGTCACCTAGTGCAG,9530 fluorescence intensity (a.u.)
14,CATCTCCATCTCCAGCTTAACTCAAGCCATCACAACTTAACGGAGTCACCTAGTGCAG,12300 fluorescence intensity (a.u.)
15,CATACTCCTTGTTCCTGAGCCATACCTCGCCACCTTGCTGCGGAGTCACCTAGTGCAG,9010 fluorescence intensity (a.u.)
16,AGGTGGGCTTTTGTGATTTTCCAAAGAATTAATCTTCGAGCGGAGTCACCTAGTGCAG,11500 fluorescence intensity (a.u.)
17,ATTCCTGTATCATTATCTGATATGTTTTGGGTGATAAATGCGGAGTCACCTAGTGCAG,8200 fluorescence intensity (a.u.)
18,ACTGCTGTCTCCGCGTTACTCTACGCATGCATGCATGTATCGGAGTCACCTAGTGCAG,10000 fluorescence intensity (a.u.)
19,GTTTCAGGTTTTTGCAGCCAACAGTTTTGCTGATTTTTTACGGAGTCACCTAGTGCAG,9480 fluorescence intensity (a.u.)
20,AAGCCCCTGCGCCCATCTCTCACGCCAACGCAGACCGACACGGAGTCACCTAGTGCAG,8090 fluorescence intensity (a.u.)
21,ATCCGCCATCGTGCTGAGCACATCTTCAATGTTTCTTTCTCGGAGTCACCTAGTGCAG,8390 fluorescence intensity (a.u.)
